Test results reported in publication PMC9023492.
Like-named read-outs stand apart in the source and are kept apart here. Results are given in words; binding and its absence hold for the method and conditions named. In cells and extracts the contact can be indirect. Here binding means that the protein was enriched with, or labelled near, the bait; the list need not be complete. For part of these data: Tags and fused reporters may be left off the sequences shown. One block for each molecule: values may come before it.

Amino acid sequences for entries named in this document (tags omitted). A change or cut given only in a name is not applied to a line headed by its entry. Chains listed by the source or under a name are the forms on record and can include a tag or linker.
UniProt P01106: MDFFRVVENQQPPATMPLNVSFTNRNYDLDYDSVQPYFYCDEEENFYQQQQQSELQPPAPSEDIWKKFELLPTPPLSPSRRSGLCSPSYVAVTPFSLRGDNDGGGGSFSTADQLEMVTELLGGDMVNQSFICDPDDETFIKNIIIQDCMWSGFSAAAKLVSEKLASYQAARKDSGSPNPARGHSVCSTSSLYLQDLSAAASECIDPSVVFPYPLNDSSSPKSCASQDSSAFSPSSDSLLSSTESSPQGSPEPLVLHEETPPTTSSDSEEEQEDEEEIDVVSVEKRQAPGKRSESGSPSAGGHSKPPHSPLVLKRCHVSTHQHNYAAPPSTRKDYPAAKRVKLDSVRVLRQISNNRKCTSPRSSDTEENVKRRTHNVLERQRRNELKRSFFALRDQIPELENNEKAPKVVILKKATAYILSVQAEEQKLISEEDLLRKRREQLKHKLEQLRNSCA
endogenous KMT5A (Q9NQR1-2, form named): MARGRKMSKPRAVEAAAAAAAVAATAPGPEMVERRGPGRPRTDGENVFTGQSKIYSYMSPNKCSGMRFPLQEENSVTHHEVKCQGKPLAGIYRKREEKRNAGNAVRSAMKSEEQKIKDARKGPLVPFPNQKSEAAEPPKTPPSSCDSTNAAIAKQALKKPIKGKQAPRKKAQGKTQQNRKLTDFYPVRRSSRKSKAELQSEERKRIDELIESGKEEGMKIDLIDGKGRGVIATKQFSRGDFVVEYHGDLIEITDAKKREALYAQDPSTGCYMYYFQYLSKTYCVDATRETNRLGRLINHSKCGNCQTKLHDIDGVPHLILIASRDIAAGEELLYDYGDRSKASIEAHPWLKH
UniProt Q92830: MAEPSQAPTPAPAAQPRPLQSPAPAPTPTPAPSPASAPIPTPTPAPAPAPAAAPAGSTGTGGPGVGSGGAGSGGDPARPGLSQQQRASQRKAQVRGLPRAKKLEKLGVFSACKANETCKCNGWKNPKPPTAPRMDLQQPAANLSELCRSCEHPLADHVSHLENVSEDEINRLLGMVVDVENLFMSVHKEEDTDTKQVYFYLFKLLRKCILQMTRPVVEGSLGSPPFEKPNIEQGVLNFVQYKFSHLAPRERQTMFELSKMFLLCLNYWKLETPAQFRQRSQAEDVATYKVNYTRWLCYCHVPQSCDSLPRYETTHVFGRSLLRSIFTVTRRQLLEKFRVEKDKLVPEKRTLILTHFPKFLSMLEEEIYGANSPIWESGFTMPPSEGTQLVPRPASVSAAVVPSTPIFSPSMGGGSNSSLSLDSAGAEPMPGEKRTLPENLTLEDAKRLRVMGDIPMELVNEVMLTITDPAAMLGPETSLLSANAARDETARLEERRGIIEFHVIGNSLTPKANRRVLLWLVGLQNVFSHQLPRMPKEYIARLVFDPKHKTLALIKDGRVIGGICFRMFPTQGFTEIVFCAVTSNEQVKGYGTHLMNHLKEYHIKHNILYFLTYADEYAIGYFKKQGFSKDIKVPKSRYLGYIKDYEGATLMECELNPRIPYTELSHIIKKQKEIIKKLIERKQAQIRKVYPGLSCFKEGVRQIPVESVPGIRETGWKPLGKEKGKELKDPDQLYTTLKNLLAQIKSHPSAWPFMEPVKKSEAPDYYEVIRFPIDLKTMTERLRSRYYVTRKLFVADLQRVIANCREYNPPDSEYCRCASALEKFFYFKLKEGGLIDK

Legend:
Assay in all cases: affinity purification with mass spectrometry; anti-FLAG immunoprecipitation from lysates of MDA-MB-231 cells with FLAG-tagged SNIP1, c-MYC or Flag-GFP control; glycine elution, SDS-PAGE, silver stain, bands cut for LC-MS/MS
[1] = biological target: T1, Flag-SNIP1 (Smad nuclear-interacting protein 1) (UniProt Q8TAD8)
T1 sequence: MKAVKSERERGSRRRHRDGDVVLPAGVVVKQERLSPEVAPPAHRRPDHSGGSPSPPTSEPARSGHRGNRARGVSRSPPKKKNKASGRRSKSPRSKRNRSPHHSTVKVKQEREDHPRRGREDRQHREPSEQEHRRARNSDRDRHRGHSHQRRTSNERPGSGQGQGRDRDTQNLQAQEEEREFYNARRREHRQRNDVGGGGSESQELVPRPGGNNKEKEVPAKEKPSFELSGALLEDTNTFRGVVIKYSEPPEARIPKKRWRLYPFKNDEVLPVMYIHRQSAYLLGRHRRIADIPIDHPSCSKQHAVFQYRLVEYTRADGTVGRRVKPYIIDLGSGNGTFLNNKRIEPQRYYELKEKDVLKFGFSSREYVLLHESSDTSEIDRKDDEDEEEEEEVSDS

[2] = biological target: FLAG-tagged c-MYC (in MDA-MB-231 cells) (UniProt P01106)
[3] = biological target: FLAG-tagged c-MYC (in MDA-MB-231 cells) (UniProt P01106); remark: listed apart in the source

binding [1]: binds
Molecule: endogenous KMT5A (from UniProt Q9NQR1-2 1-352) (enzyme)

binding [2]: binds
Molecule: endogenous KAT2A (from UniProt Q92830 1-837) (enzyme)

binding [3]: binds
B1: endogenous SNIP1 (protein, UniProt Q8TAD8 1-396)
chain: MKAVKSERERGSRRRHRDGDVVLPAGVVVKQERLSPEVAPPAHRRPDHSGGSPSPPTSEPARSGHRGNRARGVSRSPPKKKNKASGRRSKSPRSKRNRSPHHSTVKVKQEREDHPRRGREDRQHREPSEQEHRRARNSDRDRHRGHSHQRRTSNERPGSGQGQGRDRDTQNLQAQEEEREFYNARRREHRQRNDVGGGGSESQELVPRPGGNNKEKEVPAKEKPSFELSGALLEDTNTFRGVVIKYSEPPEARIPKKRWRLYPFKNDEVLPVMYIHRQSAYLLGRHRRIADIPIDHPSCSKQHAVFQYRLVEYTRADGTVGRRVKPYIIDLGSGNGTFLNNKRIEPQRYYELKEKDVLKFGFSSREYVLLHESSDTSEIDRKDDEDEEEEEEVSDS
